Reference: PubChem BioAssay AID1224830 (NIAID, 2016)

- Aim: 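Genes whose knock-down alters the TNF-alpha reporter response to LPS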 (primary screen)
- Cell system: human THP-1 monocytic leukaemia cells, TNF dual-luciferase reporter clone, PMA-differentiated to macrophage-like cells
- Reagents: siRNA pool against human genes, 50 nM
- Timing: LPS for 4 h, given about 3 days after siRNA transfection
- Challenge: bacterial LPS (TLR4 ligand), 10 ng/ml
- Measured: 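TNF firefly reporter luminescence divided by renilla, normalised to the plate median, then turned into a robust z-score for each replicate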
- Direction: TNF reporter robust z-score: higher = stronger TNF reporter response to LPS
- Rule for the call: 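Each well counts as active if its z-score is over 2.8 or under -1.5; controls are left without a call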
Here is a random part of about 18,000 deposited reagents. About 2,900 of all reagents (16%) were called active. 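Calls are made per well; low scores hint the gene aids the LPS response, high scores that it dampens it.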 Repeated entries: four replicate wells of each siRNA pool.

no.	target	TNF reporter robust z-score	activity call
1	FATE1 (fetal and adult testis expressed 1)	-0.18	inactive
2	FATE1 (fetal and adult testis expressed 1)	1.16	inactive
3	FATE1 (fetal and adult testis expressed 1)	0.3	inactive
4	FATE1 (fetal and adult testis expressed 1)	0.54	inactive
5	ITPRID2 (ITPR interacting domain containing 2)	-0.15	inactive
6	ITPRID2 (ITPR interacting domain containing 2)	-0.05	inactive
7	ITPRID2 (ITPR interacting domain containing 2)	-0.06	inactive
8	ITPRID2 (ITPR interacting domain containing 2)	0.05	inactive
9	APBB1IP	2.5	inactive
10	APBB1IP	3.49	active
11	APBB1IP	2.76	inactive
12	APBB1IP	3.36	active
13	EVA1C (eva-1 homolog C)	-0.01	inactive
14	EVA1C (eva-1 homolog C)	1.04	inactive
15	EVA1C (eva-1 homolog C)	-1.18	inactive
16	EVA1C (eva-1 homolog C)	-1.32	inactive
17	CKMT2 (creatine kinase, mitochondrial 2)	-0.4	inactive
18	CKMT2 (creatine kinase, mitochondrial 2)	-0.96	inactive
19	CKMT2 (creatine kinase, mitochondrial 2)	-0.52	inactive
20	CKMT2 (creatine kinase, mitochondrial 2)	-0.26	inactive
21	PLIN5 (perilipin 5)	-0.75	inactive
22	PLIN5 (perilipin 5)	-0.55	inactive
23	PLIN5 (perilipin 5)	-0.66	inactive
24	PLIN5 (perilipin 5)	-0.79	inactive

Next part; the last 2 above are carried over.
no.	target	TNF reporter robust z-score	activity call
23	PLIN5 (perilipin 5)	-0.66	inactive
24	PLIN5 (perilipin 5)	-0.79	inactive
25	NKAIN4 (sodium/potassium transporting ATPase interacting 4)	1.34	inactive
26	NKAIN4 (sodium/potassium transporting ATPase interacting 4)	2.56	inactive
27	NKAIN4 (sodium/potassium transporting ATPase interacting 4)	0.89	inactive
28	NKAIN4 (sodium/potassium transporting ATPase interacting 4)	2.82	active
29	PPP1R3C (protein phosphatase 1 regulatory subunit 3C)	-0.93	inactive
30	PPP1R3C (protein phosphatase 1 regulatory subunit 3C)	-0.6	inactive
31	PPP1R3C (protein phosphatase 1 regulatory subunit 3C)	-0.81	inactive
32	PPP1R3C (protein phosphatase 1 regulatory subunit 3C)	-0.56	inactive
33	ENDOV (endonuclease V)	4.21	active
34	ENDOV (endonuclease V)	2.4	inactive
35	ENDOV (endonuclease V)	3.96	active
36	ENDOV (endonuclease V)	4.33	active
37	INSR (insulin receptor)	-0.04	inactive
38	INSR (insulin receptor)	0.31	inactive
39	INSR (insulin receptor)	-0.4	inactive
40	INSR (insulin receptor)	0.45	inactive
41	NDUFA9 (NADH:ubiquinone oxidoreductase subunit A9)	-0.04	inactive
42	NDUFA9 (NADH:ubiquinone oxidoreductase subunit A9)	2.73	inactive
43	NDUFA9 (NADH:ubiquinone oxidoreductase subunit A9)	1.68	inactive
44	NDUFA9 (NADH:ubiquinone oxidoreductase subunit A9)	1.82	inactive
45	C1QL3 (complement C1q like 3)	1.04	inactive
46	C1QL3 (complement C1q like 3)	0.9	inactive
47	C1QL3 (complement C1q like 3)	-0.34	inactive
48	C1QL3 (complement C1q like 3)	0.57	inactive
